Laboratory results published in PMC12040169 (PLOS Biology, 2025).
This is one part of the list.

The compounds below were run on T1, CTL2-GFP (C. trachomatis L2/434/Bu, GFP-expressing). Conditions: bulk GFP, single well; 28.5 h, 10 µM; inhibitor.
T1 construct: L2/434/Bu, GFP-expressing
Parameters: species or system HeLa; Intracellular C. trachomatis growth in HeLa cells, bulk GFP fluorescence relative to DMSO
For `O=C(NCc1csc2c1CCCC2)N1CC(c2ccccn2)C1` [CBK307499], the “% of control remaining” value was 119.639%. `COc1cc(C(=O)N2CCCC3(CCN(C(=O)c4ccoc4)C3)C2)cc(OC)c1OC` (stereo not shown) [CBK131637] was tested, and the “% of control remaining” value was 94.5043%. `O=C(O)C1CCN(S(=O)(=O)c2ccccc2[N+](=O)[O-])CC1` [CBK265267] was tested, and the “% of control remaining” value was 100%. For `CS(=O)(=O)c1ccc(-c2ccc(C(=O)NCc3cccc(C(F)(F)F)c3)cn2)cc1` [CBK158874], the “% of control remaining” value was 101.937%. `CCCn1cc(S(=O)(=O)N2CCCC2c2ccc(Nc3cccc(C)n3)cn2)c(C)n1` (stereo not shown) [CBK286258] was tested, and the “% of control remaining” value was 123.453%. With `S=C(NCC1CCCCC1)Nc1ncc(Cl)cc1Cl` [CBK067053] the “% of control remaining” value was 95.6363%. For `Cc1cc(O)cc(C2CCCN(C(=O)c3cccc(F)c3)C2)n1` (stereo not shown) [CBK283440], the “% of control remaining” value was 102.049%. With `CN(C(=O)CN1CCCCC1Cn1cccn1)C1(C#N)CCCCC1` (stereo not shown) [CBK305412] the “% of control remaining” value was 108.362%. For `c1ccc(C(Nc2ncc(-c3cnccn3)c(-c3ccco3)n2)c2ccccc2)cc1` [CBK286413], the “% of control remaining” value was 108.853%. With `C(=C\c1ccccc1)/CN1CCN(CCc2ccccc2)CC1` [CBK261893] the “% of control remaining” value was 98.6926%. With `CC(C)c1ccc(S(=O)(=O)Nc2ccc(OC(F)F)cc2)cc1` [CBK044565] the “% of control remaining” value was 79.2992%. For `COCCCN(Cc1cc(F)cc(F)c1)Cc1ccccn1` [CBK282975], the “% of control remaining” value was 112.953%. With `S=C(NCCC(c1ccccc1)c1ccccc1)Nc1ccc(Cl)c(Cl)c1` [CBK263972] the “% of control remaining” value was 115.933%. `Cc1ccc(O)c(NC(=O)Cn2nc([N+](=O)[O-])c(Br)c2C)c1` [CBK261718] was tested, and the “% of control remaining” value was 104.894%. For `O=C(c1ccccc1F)N1CCC(n2cnc3cccnc32)CC1` [CBK283937], the “% of control remaining” value was 129.524%. With `O=S(=O)(Nc1nccnc1-c1cccs1)c1ccccc1Cl` [CBK050775] the “% of control remaining” value was 100%. With `CSc1nc2ncnc(N3CCC(O)CC3)c2s1` [CBK022082] the “% of control remaining” value was 100%. For `CC1CCN(c2nc(-c3ccccc3O)nc3ccccc23)CC1` [CBK066899], the “% of control remaining” value was 112.274%. For `COc1ccc(CN2CCN(C(=O)c3cccc(N(C)C)c3)CC2)cc1` [CBK305713], the “% of control remaining” value was 115.754%. In the case of `COc1ccc2c(c1)CC(=O)NC21CCN(C(=O)CCCC(=O)O)CC1` [CBK047208], the “% of control remaining” value is reported as 119.771%. With `O=C1CCN(Cc2ccccc2)CCN1C(=O)c1cccs1` [CBK284828] the “% of control remaining” value was 111.403%. With `CC(=O)N1CCN(c2ccc(NC(=O)C3C(C(=O)O)C3(C)C)cc2)CC1` (stereo not shown) [CBK300545] the “% of control remaining” value was 148.934%. For `CC(C)Nc1nccnc1Sc1cccc2ccccc12` [CBK089493], the “% of control remaining” value was 100.393%. In the case of `O=C1CCN(C(=O)c2ccccn2)CCN1Cc1cccc(F)c1` [CBK284467], the “% of control remaining” value is reported as 126.935%. In the case of `Oc1ccc(Cn2cnc3ccccc32)c2cccnc12` [CBK291202], the “% of control remaining” value is reported as 41.6373%. `N#Cc1ccccc1Cn1cc(C(=O)C(N)=O)c2ccccc21` [CBK269862] was tested, and the “% of control remaining” value was 107.103%. For `Cc1cc(C(=O)NCCn2ccnc2C)c2ccccc2n1` [CBK281895], the “% of control remaining” value was 119.778%. `CC(C)CC1C(C#N)=C(N)Oc2n[nH]c(-c3cccs3)c21` (stereo not shown) [CBK267449] was tested, and the “% of control remaining” value was 107.769%. With `Cc1cccc(NC(=S)N2CCN(Cc3ccc4c(c3)OCO4)CC2)c1C` [CBK264919] the “% of control remaining” value was 100%. `Clc1ccc(-c2cncc(NCCc3ccncc3)n2)cc1` [CBK065787] was tested, and the “% of control remaining” value was 132.34%. For `Cc1cc(C(=O)Nc2ccccc2C(=O)O)ccc1NC(=O)CC(C)C` [CBK263616], the “% of control remaining” value was 101.1%. In the case of `C=CCn1c2ccccc2c2nnc(SC(CC)C(=O)N3c4ccccc4Sc4ccccc43)nc21` (stereo not shown) [CBK263040], the “% of control remaining” value is reported as 100%. With `Cc1cccc(OCC(=O)Nc2sc3c(c2C(N)=O)CCC3)c1C` [CBK269729] the “% of control remaining” value was 132.958%. With `c1cncc(-c2ccc(N3CCN(CCN4CCCC4)CC3)nc2)c1` [CBK037661] the “% of control remaining” value was 171.423%. In the case of `CCNC(=O)N1CC2(CCN(Cc3ccc4nsnc4c3)CC2)c2ccccc21` [CBK136968], the “% of control remaining” value is reported as 109.507%. With `CSc1nc(O)c(C(c2ccc(Cl)cc2)c2c(O)nc(SC)nc2O)c(O)n1` [CBK265306] the “% of control remaining” value was 128.754%. `O=C(O)CC1S/C(=N/N=C/c2ccc(-c3ccc(Cl)cc3[N+](=O)[O-])o2)NC1=O` (stereo not shown) [CBK264507] was tested, and the “% of control remaining” value was 110.208%. In the case of `CCN(CC(=O)NC(C)C)Cc1csc(-c2ccc(F)cc2)n1` [CBK305849], the “% of control remaining” value is reported as 100.474%. For `Cc1csc(NC(=O)CN2CC=C(c3ccc(C)o3)CC2)n1` [CBK283606], the “% of control remaining” value was 130.227%. In the case of `CC(C)NC(=O)c1cccc2c1CCCN2Cc1nc2ccccc2o1` [CBK295135], the “% of control remaining” value is reported as 145.297%. In the case of `CNC(=O)NC(=O)C1CCN(CCOc2ccccc2)CC1` [CBK034959], the “% of control remaining” value is reported as 65.2751%. For `Cc1nc2c(c(=O)[nH]1)CN(Cc1c(C)oc3ccccc13)CC2` [CBK283984], the “% of control remaining” value was 110.438%. In the case of `COc1cc(NC(=O)COc2cc(C)cc(C)c2)c(C(=O)O)cc1OC` [CBK268650], the “% of control remaining” value is reported as 129.973%. `O=C(CCN1CCOCC1)N/N=C\c1cccs1` [CBK005035] was tested, and the “% of control remaining” value was 120.206%. In the case of `O=C(NCc1cccnc1OCC(F)(F)F)c1ccc(=O)[nH]n1` [CBK305578], the “% of control remaining” value is reported as 128.363%. `CC(C)(CO)Cn1c(=O)[nH]c2ncc(-c3ccc(C(N)=O)cc3)nc21` [CBK064787] was tested, and the “% of control remaining” value was 135.869%. With `CC(CC(=O)C1C(C)C=CCC1(C)C)NNC(=O)c1ccccc1O` (stereo not shown) [CBK262980] the “% of control remaining” value was 91.6123%. In the case of `Clc1cc(CSc2nnnn2-c2ccccc2)cc2c1OCCCO2` [CBK297159], the “% of control remaining” value is reported as 115.47%. `CC(C)CC(NC(=O)C1CCC(C)CC1)C(=O)O` (stereo not shown) [CBK287212] was tested, and the “% of control remaining” value was 114.875%. For `Cc1ccc(NC(=O)N(Cc2ccccc2Br)CC(C)(C)CN)cc1[N+](=O)[O-]` [CBK002436C], the “% of control remaining” value was 59.1218%. `COc1ccc(C(=O)Nc2nc(-c3nc4ccccc4s3)cs2)cc1` [CBK287563] was tested, and the “% of control remaining” value was 148.945%. In the case of `COc1ccc(C2N3CCCN2CC3)cc1` (stereo not shown) [CBK067068], the “% of control remaining” value is reported as 126.181%.
